This is one part of the list. Some of these compounds have results that are not shown, active ones among them.
Experiment: inhibitors of insulin promoter-driven GFP, primary screen, imaging, TRM-6 cells (human fetal islet line), eGFP reporter, cell count (AID 1273;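 note: cells exposed to compound for 48 h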)
Details: measured here: cell count, toxicity, at 2 µM, reporter expression induced with tamoxifen

SMILES	normalized cell count
O=C(OC1CN2CCC1CC2)C(CO)(c1ccccc1)c1ccccc1 (stereo not given)	111%
CN(C)c1cccc(C(=O)NCC2(N(C)C)CCCCC2)c1	144%
CN(C)C1CCCC1OC(=O)C(O)(c1ccccc1)c1ccccc1 (stereo not given)	141%
CCN1CCCC(OC(=O)C2(O)c3ccccc3C=Cc3ccccc32)C1 (stereo not given)	46%
CC(C)N1C(=O)CC2(CCN(CCOC(=O)C(O)(c3ccccc3)c3ccccc3)CC2)C1=O	104%

Source: PubChem BioAssay AID1273 (Columbia University Molecular Screening Center, 2008)
